The results in this text go back to US20250388535A1, “SULFONATED AND SULFATED ARYL-ALKYL COMPOUNDS USEFUL AS SURFACTANTS” (SPECIALTY OPERATIONS FRANCE, priority 2022, published 2025).

This series relates to municipal activated sludge. Nature of the series: Biodegradability assessment using the 301 F OECD protocol (standard protocol). The following applies: for % biodeg (28 d) (Standard protocol): 28 days, 20±2° C., closed BOD flask, without emulsion; for Lag phase: period preceding the beginning of mineralization of the test substance, protocol not given.

As to `CCCCCCCCCCCCCCC(C(=O)c1ccccc1)S(=O)(=O)[O-].[Na+]` (stereo not shown) [PAKS-C16, reference compound], the “% biodeg (28 d) (Standard protocol)” value turned out to be 49% and the Lag phase was determined as 10 days.
Regarding `CCCCCCCCCCCCCCC(C(O)c1ccccc1)S(=O)(=O)[O-].[Na+]` (stereo not shown) [PAS-C16], the “% biodeg (28 d) (Standard protocol)” value is reported as 45% and the Lag phase turned out to be 4 days.
